No constants are given. Whether binding was seen depends on the method and setting. In cells and extracts the contact can be indirect. Some results given as binding are weak or reduced against the parent protein; the word gives no strength.
How the values were obtained:
[1] = biological target: Flag-FASN (fatty acid synthase, wild type) (human) (UniProt P49327); experiment: co-IP; chondrocytes transfected with plasmids for 48 h; IP lysis buffer (20 mM Tris-HCl, 150 mM NaCl, 1 mM EDTA, 1% Nonidet P40); Sepharose beads and specific IP antibodies overnight at 4 °C; western blot; in some panels with CircRREB1 knockdown or overexpression, RanBP2 knockdown, MG-132 and TSA
Flag-FASN-K673R (human) = Flag-FASN-K673R (human) (UniProt P49327); experiment: as above

Chains of the proteins cited; added tags and fusions are not shown. Lines headed by an entry give the natural chain unless they say otherwise; changes in a name come on top.
UniProt P49327: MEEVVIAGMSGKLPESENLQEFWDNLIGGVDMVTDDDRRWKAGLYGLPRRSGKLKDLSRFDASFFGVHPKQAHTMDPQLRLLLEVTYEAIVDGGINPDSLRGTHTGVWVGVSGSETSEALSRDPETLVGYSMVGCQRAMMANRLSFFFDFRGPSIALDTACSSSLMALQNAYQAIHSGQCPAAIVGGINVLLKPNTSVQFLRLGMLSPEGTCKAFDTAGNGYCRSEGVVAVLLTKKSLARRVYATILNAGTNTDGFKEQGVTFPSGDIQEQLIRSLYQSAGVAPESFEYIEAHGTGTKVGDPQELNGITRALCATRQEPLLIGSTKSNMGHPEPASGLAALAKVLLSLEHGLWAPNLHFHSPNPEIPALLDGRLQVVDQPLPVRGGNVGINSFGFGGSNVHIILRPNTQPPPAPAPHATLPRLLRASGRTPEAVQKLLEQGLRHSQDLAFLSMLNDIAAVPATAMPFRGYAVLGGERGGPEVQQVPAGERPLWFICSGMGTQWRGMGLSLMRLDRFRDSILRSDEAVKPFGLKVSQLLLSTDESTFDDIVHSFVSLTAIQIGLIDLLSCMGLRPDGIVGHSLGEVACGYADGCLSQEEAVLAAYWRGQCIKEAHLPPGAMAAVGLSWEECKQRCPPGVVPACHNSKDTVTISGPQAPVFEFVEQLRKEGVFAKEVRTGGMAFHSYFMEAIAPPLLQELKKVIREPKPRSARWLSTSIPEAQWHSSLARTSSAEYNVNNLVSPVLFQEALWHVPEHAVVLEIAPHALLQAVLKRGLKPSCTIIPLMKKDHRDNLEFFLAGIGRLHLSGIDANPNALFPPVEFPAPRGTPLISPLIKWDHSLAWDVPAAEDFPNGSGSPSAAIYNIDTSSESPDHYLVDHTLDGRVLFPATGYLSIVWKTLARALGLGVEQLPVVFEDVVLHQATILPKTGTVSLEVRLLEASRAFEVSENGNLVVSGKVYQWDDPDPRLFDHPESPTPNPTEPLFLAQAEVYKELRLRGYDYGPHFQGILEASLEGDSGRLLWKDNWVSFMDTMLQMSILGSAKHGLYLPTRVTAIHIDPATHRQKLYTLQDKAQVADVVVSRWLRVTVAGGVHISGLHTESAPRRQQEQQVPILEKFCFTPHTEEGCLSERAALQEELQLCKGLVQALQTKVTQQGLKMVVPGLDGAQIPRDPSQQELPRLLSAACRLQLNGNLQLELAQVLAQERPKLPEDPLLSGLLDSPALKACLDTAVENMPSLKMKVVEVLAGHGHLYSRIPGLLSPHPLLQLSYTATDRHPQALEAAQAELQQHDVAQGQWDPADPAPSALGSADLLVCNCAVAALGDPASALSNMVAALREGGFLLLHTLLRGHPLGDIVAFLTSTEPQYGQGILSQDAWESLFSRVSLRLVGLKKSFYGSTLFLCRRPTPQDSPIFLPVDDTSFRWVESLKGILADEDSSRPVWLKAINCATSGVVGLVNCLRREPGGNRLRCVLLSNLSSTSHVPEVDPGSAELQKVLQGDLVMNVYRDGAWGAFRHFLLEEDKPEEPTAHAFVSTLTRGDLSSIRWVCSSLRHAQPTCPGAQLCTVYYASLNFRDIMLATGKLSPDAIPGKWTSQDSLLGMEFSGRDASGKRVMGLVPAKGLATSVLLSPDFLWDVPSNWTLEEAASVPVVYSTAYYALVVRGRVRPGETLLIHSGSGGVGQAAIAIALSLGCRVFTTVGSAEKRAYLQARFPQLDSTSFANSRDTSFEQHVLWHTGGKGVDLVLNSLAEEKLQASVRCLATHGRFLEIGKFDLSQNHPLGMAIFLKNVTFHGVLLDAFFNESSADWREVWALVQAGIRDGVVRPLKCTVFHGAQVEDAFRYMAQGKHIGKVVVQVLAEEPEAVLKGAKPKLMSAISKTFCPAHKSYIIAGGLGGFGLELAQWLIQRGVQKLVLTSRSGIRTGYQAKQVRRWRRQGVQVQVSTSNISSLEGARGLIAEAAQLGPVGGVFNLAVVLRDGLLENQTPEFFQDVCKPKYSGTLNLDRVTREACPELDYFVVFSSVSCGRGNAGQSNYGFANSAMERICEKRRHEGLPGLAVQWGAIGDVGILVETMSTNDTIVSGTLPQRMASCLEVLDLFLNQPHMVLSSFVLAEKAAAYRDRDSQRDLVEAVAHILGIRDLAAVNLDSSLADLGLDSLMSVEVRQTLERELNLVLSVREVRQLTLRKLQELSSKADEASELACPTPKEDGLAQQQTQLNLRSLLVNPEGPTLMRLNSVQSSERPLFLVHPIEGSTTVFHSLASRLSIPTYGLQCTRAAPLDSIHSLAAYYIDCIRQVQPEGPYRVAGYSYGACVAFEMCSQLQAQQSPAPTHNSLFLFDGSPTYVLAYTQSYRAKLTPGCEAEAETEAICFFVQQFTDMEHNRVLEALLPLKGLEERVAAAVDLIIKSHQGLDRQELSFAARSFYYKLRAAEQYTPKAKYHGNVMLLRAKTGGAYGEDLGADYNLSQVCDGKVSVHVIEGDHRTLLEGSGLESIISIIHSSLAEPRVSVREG
UniProt P49792: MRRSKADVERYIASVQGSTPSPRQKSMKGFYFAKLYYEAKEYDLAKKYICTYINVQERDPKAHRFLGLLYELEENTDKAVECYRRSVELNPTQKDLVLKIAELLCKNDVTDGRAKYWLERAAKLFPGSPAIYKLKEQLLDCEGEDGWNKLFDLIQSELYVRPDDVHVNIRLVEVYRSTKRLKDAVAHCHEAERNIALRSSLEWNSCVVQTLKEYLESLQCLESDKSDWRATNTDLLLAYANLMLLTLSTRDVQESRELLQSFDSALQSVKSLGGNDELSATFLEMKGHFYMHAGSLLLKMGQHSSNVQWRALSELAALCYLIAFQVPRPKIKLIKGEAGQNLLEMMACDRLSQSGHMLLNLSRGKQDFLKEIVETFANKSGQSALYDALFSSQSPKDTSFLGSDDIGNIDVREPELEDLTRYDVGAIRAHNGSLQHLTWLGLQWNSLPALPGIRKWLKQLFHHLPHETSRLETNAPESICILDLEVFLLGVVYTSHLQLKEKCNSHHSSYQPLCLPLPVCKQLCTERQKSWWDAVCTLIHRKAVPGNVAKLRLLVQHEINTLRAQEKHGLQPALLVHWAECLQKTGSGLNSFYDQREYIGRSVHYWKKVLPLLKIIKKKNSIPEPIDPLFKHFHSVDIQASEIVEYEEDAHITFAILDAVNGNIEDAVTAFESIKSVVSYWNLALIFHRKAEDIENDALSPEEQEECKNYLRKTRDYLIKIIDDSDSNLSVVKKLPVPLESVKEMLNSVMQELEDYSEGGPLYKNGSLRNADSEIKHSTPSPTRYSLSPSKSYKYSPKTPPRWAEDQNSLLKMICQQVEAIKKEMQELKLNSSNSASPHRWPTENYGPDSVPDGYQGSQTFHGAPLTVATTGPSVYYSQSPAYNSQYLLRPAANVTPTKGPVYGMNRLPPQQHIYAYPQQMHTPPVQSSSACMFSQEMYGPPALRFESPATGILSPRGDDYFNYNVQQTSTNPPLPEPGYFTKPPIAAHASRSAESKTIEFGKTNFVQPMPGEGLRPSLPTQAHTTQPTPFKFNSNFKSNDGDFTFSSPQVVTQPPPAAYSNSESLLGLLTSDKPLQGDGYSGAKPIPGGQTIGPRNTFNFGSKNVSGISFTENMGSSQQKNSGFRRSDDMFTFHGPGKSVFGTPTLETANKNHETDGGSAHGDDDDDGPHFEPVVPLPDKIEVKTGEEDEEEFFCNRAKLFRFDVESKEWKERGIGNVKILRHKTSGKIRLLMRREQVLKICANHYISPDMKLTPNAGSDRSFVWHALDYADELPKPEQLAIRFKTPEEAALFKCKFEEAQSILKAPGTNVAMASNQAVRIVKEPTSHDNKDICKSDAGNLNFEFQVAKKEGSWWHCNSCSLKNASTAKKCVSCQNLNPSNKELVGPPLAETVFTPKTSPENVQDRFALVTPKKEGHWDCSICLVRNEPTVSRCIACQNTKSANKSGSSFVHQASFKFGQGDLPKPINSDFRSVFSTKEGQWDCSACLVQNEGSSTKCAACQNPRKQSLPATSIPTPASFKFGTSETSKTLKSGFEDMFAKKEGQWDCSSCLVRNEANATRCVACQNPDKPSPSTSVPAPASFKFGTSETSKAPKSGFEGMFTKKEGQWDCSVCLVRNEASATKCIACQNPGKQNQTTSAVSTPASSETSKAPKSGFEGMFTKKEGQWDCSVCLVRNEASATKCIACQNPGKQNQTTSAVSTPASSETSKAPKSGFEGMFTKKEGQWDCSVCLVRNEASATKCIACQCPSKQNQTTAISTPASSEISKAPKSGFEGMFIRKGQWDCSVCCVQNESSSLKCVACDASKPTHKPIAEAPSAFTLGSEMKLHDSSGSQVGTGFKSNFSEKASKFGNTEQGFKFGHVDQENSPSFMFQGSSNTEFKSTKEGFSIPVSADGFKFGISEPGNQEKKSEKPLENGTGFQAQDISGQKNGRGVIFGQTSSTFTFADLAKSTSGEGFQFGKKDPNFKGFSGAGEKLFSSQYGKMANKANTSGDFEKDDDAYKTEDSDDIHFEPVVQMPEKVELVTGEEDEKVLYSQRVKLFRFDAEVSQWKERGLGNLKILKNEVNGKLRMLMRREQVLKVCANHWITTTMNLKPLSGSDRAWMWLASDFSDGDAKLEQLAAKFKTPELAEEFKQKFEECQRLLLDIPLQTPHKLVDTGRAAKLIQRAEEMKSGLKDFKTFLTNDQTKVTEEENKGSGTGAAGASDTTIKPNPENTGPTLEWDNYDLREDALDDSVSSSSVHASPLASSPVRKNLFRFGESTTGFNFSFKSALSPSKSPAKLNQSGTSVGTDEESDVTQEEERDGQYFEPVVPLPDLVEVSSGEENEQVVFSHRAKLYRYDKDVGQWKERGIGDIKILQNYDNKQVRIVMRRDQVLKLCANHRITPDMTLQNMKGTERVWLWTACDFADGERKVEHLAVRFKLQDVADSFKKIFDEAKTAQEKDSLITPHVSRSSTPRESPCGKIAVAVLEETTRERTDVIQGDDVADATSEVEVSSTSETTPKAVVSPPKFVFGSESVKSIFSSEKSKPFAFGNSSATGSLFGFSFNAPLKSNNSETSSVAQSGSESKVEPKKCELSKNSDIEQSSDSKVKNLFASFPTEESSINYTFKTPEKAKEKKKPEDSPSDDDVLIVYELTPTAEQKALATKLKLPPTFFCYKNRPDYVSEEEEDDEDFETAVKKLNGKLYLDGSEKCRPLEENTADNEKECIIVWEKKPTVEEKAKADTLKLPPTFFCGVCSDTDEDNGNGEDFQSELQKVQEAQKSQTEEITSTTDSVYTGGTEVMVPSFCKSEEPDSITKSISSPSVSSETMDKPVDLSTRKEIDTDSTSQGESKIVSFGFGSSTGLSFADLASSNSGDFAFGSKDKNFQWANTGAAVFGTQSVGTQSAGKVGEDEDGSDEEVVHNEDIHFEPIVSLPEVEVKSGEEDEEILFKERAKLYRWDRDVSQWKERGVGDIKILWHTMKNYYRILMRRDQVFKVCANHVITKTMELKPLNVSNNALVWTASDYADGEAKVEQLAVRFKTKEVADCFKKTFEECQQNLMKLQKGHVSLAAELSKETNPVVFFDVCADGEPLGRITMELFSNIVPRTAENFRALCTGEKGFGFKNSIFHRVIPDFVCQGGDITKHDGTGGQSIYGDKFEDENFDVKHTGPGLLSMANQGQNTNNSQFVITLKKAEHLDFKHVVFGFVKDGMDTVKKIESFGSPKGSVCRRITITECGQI
UniProt Q00987: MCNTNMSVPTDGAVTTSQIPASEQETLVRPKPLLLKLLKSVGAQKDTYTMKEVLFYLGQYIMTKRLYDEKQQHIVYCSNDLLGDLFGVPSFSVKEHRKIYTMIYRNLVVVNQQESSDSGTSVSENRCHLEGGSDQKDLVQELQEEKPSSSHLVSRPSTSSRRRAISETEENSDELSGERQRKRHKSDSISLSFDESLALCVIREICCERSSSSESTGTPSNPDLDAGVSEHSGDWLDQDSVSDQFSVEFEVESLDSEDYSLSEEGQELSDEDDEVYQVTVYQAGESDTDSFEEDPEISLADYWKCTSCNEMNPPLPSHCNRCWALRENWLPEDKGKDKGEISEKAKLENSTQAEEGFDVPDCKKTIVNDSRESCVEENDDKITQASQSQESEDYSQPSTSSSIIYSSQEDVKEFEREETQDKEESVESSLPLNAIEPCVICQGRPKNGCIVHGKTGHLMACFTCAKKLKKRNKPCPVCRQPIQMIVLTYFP
UniProt P63279: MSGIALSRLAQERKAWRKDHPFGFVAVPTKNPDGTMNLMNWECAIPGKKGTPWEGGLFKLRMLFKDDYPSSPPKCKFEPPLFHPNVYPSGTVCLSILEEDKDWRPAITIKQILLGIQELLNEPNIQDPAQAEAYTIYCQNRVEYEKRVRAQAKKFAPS

Row | binding [1] | binding (Flag-FASN-K673R (human)) | Substance
1 | binds | – | E3 SUMO-protein ligase RanBP2 (from UniProt P49792 1-3224) (enzyme)
2 | binds | binds | HDAC3 (from UniProt O15379 1-428) (enzyme)
3 | binds | – | Myc-MDM2 (from UniProt Q00987 1-491) (enzyme)
4 | binds | – | ubiquitin-conjugating enzyme 9 (UBC9) (from UniProt P63279 1-158)

Reference: article PMC10462713
